Results are given in words; binding and its absence hold for the method and conditions named. Binding seen in cells or lysates may run through a third protein. These calls come from enrichment with a bait or labelling near it, and not all partners need be listed. Sequences can lack the tags named with a protein.
Columns and labels:
Assay in all cases: affinity purification with mass spectrometry; total proteins of inflorescence tissues of epitope-tagged transgenic plants in IP buffer (50 mM Tris-HCl pH 7.6, 150 mM NaCl, 5 mM MgCl2, 10% glycerol, 0.1% NP-40, 0.5 mM DTT), precipitated with anti-Flag or anti-Myc antibodies 2 h at 4 °C, five washes, MS
[1] = molecular target: T1, AIPP2, epitope-tagged in transgenic Arabidopsis (Arabidopsis) (UniProt F4IYH6)
T1 sequence: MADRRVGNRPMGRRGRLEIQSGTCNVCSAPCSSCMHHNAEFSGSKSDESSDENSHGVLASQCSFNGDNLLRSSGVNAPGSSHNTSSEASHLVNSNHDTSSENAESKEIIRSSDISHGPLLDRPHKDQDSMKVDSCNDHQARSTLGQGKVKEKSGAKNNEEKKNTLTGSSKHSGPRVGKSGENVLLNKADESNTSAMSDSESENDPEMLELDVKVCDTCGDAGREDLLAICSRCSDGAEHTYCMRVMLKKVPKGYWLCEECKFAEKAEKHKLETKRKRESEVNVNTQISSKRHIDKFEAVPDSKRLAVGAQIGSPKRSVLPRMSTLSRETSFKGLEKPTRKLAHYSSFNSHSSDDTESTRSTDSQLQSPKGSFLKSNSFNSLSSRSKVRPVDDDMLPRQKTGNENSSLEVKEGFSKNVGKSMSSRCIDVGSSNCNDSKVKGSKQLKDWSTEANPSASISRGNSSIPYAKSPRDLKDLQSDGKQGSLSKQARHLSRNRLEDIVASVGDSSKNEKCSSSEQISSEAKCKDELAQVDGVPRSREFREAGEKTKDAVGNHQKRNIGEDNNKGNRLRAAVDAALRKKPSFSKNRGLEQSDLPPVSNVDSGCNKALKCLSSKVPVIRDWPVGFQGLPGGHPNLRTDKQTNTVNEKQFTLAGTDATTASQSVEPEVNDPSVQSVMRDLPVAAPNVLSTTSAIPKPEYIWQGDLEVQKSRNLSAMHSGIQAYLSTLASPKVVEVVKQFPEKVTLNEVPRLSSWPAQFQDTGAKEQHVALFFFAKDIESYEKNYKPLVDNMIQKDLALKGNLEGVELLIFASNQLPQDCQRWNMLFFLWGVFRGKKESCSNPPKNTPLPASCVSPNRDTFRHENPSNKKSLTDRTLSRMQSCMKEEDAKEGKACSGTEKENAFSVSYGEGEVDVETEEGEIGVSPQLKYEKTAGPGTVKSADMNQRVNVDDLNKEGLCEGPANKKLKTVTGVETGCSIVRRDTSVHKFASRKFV

[2] = molecular target: T2, ASI1-IMMUNO… PROTEIN 3 (AIPP3), epitope-tagged in transgenic Arabidopsis (Arabidopsis) (UniProt Q8RXT5)
T2 sequence: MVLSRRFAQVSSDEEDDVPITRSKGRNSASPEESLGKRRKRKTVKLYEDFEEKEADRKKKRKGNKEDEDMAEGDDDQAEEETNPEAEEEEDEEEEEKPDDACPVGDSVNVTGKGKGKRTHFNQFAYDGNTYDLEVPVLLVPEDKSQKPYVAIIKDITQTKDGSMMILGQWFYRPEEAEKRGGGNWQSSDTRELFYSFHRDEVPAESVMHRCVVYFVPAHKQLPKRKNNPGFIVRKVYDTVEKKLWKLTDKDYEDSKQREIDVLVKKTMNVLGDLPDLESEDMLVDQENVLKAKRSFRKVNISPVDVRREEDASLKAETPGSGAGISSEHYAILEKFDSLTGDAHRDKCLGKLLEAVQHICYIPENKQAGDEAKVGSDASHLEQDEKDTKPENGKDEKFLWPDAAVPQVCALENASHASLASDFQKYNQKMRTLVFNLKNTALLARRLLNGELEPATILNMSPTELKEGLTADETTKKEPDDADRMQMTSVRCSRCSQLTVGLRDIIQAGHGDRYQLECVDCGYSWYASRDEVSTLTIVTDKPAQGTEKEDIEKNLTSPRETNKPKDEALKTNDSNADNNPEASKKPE

[3] = molecular target: T3, PARALOG OF AIPP2 (PAIPP2), epitope-tagged in transgenic Arabidopsis (Arabidopsis) (UniProt F4KE59)
T3 sequence: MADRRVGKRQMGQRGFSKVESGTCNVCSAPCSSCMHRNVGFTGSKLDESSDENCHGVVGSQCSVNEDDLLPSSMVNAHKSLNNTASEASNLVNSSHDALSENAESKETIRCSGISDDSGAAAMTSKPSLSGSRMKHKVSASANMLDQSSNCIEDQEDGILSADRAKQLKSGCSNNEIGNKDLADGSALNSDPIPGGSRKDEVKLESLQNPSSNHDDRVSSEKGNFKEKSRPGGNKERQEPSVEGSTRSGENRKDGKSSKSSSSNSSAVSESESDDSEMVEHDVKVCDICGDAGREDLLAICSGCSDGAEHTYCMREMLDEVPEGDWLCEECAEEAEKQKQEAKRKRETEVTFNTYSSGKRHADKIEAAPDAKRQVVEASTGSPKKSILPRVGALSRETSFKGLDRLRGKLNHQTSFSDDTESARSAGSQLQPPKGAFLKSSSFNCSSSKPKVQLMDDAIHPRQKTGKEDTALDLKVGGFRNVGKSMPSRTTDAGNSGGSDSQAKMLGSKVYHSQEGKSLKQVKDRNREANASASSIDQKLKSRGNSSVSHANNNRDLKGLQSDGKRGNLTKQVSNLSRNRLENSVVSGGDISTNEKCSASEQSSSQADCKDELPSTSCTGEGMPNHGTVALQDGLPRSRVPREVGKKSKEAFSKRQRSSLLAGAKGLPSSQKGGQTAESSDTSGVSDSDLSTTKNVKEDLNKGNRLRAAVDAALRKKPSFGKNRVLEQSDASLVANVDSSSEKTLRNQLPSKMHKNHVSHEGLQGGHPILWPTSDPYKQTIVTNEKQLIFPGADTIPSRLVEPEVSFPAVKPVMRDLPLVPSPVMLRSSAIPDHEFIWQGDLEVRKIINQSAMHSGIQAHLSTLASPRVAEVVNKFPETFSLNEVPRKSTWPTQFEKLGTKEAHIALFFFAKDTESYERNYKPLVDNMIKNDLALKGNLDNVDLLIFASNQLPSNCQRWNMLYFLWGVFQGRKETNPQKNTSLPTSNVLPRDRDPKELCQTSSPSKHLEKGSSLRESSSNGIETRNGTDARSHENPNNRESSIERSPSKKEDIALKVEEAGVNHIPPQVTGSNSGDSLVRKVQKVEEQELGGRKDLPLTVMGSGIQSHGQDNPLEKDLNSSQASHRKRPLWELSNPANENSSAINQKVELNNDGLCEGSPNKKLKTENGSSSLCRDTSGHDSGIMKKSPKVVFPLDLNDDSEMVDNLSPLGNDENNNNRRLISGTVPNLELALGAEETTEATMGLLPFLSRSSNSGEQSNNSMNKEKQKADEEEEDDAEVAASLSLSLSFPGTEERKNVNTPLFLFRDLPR

[4] = molecular target: T4, CPL2, epitope-tagged in transgenic Arabidopsis (Arabidopsis) (UniProt Q5YDB5)
T4 sequence: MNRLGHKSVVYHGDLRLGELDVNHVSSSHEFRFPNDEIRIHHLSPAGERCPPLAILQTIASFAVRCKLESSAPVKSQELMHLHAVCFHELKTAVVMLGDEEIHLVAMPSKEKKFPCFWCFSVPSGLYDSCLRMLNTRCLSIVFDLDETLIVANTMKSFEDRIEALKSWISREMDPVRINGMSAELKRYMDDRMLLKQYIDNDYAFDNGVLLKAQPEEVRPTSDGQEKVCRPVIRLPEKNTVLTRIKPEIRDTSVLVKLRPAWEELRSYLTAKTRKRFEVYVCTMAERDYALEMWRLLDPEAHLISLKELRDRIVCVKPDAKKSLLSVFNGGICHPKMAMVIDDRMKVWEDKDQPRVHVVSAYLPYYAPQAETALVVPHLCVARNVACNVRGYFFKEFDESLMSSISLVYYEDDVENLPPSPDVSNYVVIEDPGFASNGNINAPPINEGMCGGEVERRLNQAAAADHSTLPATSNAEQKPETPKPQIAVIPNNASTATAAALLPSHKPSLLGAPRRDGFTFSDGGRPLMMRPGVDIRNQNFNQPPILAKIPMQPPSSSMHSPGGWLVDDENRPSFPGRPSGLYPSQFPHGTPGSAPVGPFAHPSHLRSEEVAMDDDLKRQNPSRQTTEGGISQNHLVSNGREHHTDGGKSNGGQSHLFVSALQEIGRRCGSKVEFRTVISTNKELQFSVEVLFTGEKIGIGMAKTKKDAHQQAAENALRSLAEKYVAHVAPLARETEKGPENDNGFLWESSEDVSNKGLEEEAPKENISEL

Measured: binding

B1: CPL2, epitope-tagged in transgenic Arabidopsis (enzyme, UniProt Q5YDB5 1-770)
chain: MNRLGHKSVVYHGDLRLGELDVNHVSSSHEFRFPNDEIRIHHLSPAGERCPPLAILQTIASFAVRCKLESSAPVKSQELMHLHAVCFHELKTAVVMLGDEEIHLVAMPSKEKKFPCFWCFSVPSGLYDSCLRMLNTRCLSIVFDLDETLIVANTMKSFEDRIEALKSWISREMDPVRINGMSAELKRYMDDRMLLKQYIDNDYAFDNGVLLKAQPEEVRPTSDGQEKVCRPVIRLPEKNTVLTRIKPEIRDTSVLVKLRPAWEELRSYLTAKTRKRFEVYVCTMAERDYALEMWRLLDPEAHLISLKELRDRIVCVKPDAKKSLLSVFNGGICHPKMAMVIDDRMKVWEDKDQPRVHVVSAYLPYYAPQAETALVVPHLCVARNVACNVRGYFFKEFDESLMSSISLVYYEDDVENLPPSPDVSNYVVIEDPGFASNGNINAPPINEGMCGGEVERRLNQAAAADHSTLPATSNAEQKPETPKPQIAVIPNNASTATAAALLPSHKPSLLGAPRRDGFTFSDGGRPLMMRPGVDIRNQNFNQPPILAKIPMQPPSSSMHSPGGWLVDDENRPSFPGRPSGLYPSQFPHGTPGSAPVGPFAHPSHLRSEEVAMDDDLKRQNPSRQTTEGGISQNHLVSNGREHHTDGGKSNGGQSHLFVSALQEIGRRCGSKVEFRTVISTNKELQFSVEVLFTGEKIGIGMAKTKKDAHQQAAENALRSLAEKYVAHVAPLARETEKGPENDNGFLWESSEDVSNKGLEEEAPKENISEL
binds: [1] | [2] | [3]

B2: ASI1-IMMUNO… PROTEIN 3 (AIPP3), epitope-tagged in transgenic Arabidopsis (protein, UniProt Q8RXT5 1-587)
chain: MVLSRRFAQVSSDEEDDVPITRSKGRNSASPEESLGKRRKRKTVKLYEDFEEKEADRKKKRKGNKEDEDMAEGDDDQAEEETNPEAEEEEDEEEEEKPDDACPVGDSVNVTGKGKGKRTHFNQFAYDGNTYDLEVPVLLVPEDKSQKPYVAIIKDITQTKDGSMMILGQWFYRPEEAEKRGGGNWQSSDTRELFYSFHRDEVPAESVMHRCVVYFVPAHKQLPKRKNNPGFIVRKVYDTVEKKLWKLTDKDYEDSKQREIDVLVKKTMNVLGDLPDLESEDMLVDQENVLKAKRSFRKVNISPVDVRREEDASLKAETPGSGAGISSEHYAILEKFDSLTGDAHRDKCLGKLLEAVQHICYIPENKQAGDEAKVGSDASHLEQDEKDTKPENGKDEKFLWPDAAVPQVCALENASHASLASDFQKYNQKMRTLVFNLKNTALLARRLLNGELEPATILNMSPTELKEGLTADETTKKEPDDADRMQMTSVRCSRCSQLTVGLRDIIQAGHGDRYQLECVDCGYSWYASRDEVSTLTIVTDKPAQGTEKEDIEKNLTSPRETNKPKDEALKTNDSNADNNPEASKKPE
binds: [1] | [4] | [3]
